These are yes or no findings as the source states them, for the method shown. Sequences can lack the tags named with a protein.
Molecular target: NKR-P1B^SD V78-S223, histidine-tagged, expressed from pHLsec (rat (SD strain)) (UniProt A4KWA1)
Assay: non-reducing SDS-PAGE with Western blot; small-scale expression test; 10 ul of culture supernatant 3 days after transfection, 15% SDS-PAGE under non-reducing conditions, detected by PentaHis mAb; shows covalent dimers

B1: NKR-P1B^SD V78-S223, histidine-tagged, expressed from pHLsec (domain or fragment, UniProt A4KWA1 78-223)
chain: ETGVQENRTKTTDSPAKLKCPKDWHSHQDKCFHVSQTSITWKGSLADCGGKGATLLLVQDQEELRFLRNLTKRISSSFWIGLSYTLSDEKWKWINGSTLNSDALNITGDTEKDSCASVSQDKVLSESCDSDNIWICQKELKRESTCNDS
In the case of B1, the binding is reported as “no binding”.

Reference: article PMC6882821, “Production of recombinant soluble dimeric C-type lectin-like receptors of rat natural killer cells” (Scientific Reports, 2019)
